In the supplement of paper PMC5836539:
± gives the standard deviation of the averaged measurements. This data set is noisy: repeats of one test often differ as much as different tests do.

Protein sequences, listed by entry. Tags and fused reporters are not part of them. Lines headed by an entry give the natural chain unless they say otherwise; changes in a name come on top.
UniProt Q9UQ35: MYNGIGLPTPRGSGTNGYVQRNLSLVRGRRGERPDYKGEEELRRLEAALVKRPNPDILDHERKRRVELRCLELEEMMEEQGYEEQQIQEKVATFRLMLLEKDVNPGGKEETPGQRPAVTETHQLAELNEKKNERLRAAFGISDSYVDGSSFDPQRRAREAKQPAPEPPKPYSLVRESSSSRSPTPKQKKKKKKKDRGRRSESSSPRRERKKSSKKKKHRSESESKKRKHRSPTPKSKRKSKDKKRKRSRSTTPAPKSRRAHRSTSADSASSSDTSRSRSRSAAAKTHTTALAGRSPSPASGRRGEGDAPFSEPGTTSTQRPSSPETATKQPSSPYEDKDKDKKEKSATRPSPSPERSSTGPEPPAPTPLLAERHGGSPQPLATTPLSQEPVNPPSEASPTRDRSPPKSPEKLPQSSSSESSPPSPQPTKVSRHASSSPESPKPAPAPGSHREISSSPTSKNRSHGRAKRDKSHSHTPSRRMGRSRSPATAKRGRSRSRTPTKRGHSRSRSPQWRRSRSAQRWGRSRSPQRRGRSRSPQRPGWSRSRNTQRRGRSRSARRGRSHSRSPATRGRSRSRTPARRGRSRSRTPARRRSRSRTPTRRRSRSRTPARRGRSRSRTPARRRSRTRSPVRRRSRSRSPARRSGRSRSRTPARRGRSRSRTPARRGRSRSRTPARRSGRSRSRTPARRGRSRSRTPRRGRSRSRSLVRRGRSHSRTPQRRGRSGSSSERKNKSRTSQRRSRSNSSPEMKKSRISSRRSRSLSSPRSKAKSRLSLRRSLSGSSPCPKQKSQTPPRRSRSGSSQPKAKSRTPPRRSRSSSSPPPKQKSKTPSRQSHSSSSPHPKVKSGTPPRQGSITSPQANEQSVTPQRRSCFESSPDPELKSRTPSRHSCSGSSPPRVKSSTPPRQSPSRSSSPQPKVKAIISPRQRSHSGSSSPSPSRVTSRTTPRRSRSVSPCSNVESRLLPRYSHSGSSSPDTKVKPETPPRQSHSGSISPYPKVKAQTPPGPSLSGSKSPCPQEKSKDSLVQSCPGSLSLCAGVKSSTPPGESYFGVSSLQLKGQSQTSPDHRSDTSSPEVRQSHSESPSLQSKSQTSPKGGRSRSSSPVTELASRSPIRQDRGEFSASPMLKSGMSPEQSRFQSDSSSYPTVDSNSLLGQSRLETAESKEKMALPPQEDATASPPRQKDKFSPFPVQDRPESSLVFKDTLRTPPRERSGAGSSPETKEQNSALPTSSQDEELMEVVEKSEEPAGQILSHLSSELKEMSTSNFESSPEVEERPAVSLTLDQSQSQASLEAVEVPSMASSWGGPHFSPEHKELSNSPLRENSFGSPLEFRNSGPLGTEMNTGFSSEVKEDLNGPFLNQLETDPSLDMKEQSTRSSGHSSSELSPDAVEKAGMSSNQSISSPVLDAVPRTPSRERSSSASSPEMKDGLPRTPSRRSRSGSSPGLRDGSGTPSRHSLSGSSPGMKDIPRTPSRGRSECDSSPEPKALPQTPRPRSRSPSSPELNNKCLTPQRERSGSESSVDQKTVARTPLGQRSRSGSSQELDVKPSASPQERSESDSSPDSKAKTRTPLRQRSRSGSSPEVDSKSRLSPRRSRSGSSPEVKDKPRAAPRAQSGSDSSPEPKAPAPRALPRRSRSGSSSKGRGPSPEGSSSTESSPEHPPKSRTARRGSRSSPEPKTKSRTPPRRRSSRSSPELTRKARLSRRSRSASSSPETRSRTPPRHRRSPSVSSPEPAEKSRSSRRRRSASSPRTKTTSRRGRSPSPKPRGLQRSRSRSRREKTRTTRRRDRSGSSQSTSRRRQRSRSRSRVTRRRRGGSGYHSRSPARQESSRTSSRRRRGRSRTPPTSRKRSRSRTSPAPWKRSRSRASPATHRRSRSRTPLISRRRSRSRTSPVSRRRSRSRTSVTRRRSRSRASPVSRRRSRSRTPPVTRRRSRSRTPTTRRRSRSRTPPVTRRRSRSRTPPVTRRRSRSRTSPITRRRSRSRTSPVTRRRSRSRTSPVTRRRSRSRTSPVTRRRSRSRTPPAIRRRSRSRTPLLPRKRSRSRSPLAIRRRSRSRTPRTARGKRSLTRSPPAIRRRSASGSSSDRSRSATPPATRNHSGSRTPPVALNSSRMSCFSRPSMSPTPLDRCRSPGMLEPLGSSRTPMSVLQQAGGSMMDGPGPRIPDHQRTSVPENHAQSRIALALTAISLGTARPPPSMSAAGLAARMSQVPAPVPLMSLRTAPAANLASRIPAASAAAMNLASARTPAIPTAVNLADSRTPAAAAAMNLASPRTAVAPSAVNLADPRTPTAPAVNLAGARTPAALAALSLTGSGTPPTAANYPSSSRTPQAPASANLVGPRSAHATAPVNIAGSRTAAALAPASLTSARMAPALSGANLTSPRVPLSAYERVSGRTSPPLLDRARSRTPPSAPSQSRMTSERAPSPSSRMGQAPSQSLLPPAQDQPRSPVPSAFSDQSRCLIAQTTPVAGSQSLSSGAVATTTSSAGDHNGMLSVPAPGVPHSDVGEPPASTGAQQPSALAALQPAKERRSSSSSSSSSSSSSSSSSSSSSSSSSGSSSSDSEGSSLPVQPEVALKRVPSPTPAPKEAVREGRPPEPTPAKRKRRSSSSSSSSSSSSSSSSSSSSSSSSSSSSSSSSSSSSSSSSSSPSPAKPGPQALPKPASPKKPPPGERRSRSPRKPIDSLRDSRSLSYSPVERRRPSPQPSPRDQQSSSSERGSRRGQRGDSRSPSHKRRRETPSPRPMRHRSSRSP
UniProt P36915, whole entry, looked up: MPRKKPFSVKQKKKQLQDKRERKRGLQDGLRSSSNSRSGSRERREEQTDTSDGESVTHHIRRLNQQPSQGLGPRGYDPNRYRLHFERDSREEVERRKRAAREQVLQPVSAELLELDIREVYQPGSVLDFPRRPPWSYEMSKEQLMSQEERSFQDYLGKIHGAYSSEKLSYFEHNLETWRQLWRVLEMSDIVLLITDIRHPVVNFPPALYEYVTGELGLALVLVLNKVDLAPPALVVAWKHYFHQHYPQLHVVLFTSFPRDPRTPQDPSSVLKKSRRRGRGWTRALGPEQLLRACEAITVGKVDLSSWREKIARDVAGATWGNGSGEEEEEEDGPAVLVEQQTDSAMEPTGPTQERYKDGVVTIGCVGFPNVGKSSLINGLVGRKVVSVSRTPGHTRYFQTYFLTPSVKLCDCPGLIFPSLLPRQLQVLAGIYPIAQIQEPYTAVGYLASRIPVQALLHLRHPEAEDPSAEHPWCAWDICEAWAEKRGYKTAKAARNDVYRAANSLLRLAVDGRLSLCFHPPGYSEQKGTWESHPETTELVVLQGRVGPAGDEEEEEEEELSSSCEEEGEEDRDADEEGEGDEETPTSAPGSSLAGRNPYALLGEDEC
UniProt Q15742: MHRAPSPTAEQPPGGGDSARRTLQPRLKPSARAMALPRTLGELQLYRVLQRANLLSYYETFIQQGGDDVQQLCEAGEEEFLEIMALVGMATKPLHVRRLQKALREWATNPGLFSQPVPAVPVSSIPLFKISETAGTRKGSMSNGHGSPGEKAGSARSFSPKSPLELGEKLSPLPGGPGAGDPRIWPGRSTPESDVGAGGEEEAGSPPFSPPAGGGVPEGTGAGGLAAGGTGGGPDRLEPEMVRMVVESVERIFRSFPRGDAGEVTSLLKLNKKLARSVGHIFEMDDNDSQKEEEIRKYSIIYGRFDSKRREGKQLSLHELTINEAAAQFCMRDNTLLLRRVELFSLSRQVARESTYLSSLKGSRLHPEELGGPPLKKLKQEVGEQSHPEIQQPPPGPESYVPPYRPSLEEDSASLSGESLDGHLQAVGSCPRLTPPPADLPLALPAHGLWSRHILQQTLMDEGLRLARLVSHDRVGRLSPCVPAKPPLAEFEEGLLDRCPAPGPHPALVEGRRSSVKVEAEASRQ
UniProt Q9P2E9: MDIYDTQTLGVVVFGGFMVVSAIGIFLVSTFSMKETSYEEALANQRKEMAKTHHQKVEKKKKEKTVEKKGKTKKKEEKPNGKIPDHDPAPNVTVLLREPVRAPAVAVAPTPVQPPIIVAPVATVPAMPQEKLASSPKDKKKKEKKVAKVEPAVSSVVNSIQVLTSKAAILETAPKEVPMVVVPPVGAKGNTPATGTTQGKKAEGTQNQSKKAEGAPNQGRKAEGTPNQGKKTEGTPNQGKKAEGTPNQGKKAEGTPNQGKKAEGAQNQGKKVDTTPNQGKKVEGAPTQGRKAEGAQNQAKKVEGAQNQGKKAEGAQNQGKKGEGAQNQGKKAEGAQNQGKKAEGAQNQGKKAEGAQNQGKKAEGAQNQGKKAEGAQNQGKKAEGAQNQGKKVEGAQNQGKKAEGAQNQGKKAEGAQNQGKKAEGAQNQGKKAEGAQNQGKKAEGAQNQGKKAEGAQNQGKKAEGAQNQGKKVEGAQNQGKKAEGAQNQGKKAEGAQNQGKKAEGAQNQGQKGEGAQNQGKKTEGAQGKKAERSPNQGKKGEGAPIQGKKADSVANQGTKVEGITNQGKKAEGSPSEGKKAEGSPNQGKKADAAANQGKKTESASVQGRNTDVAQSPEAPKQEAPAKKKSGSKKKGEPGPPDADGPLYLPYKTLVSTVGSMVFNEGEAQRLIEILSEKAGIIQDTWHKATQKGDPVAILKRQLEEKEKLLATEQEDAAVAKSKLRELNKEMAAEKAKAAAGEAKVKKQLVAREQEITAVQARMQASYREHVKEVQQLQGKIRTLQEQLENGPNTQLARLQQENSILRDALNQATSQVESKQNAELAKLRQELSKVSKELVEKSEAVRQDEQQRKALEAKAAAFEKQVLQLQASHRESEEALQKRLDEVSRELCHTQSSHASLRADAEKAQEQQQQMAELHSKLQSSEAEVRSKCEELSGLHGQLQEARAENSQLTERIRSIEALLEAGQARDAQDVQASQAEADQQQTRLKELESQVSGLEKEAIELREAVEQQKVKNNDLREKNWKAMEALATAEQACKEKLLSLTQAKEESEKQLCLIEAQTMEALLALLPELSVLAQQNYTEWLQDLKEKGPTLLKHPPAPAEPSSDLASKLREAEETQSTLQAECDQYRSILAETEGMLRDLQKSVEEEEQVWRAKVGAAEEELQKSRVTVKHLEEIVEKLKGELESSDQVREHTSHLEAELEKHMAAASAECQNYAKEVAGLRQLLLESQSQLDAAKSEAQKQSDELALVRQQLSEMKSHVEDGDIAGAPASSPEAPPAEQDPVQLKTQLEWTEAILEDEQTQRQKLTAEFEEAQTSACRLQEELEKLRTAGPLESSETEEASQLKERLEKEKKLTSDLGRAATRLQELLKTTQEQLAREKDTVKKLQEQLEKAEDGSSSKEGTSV
UniProt P28715: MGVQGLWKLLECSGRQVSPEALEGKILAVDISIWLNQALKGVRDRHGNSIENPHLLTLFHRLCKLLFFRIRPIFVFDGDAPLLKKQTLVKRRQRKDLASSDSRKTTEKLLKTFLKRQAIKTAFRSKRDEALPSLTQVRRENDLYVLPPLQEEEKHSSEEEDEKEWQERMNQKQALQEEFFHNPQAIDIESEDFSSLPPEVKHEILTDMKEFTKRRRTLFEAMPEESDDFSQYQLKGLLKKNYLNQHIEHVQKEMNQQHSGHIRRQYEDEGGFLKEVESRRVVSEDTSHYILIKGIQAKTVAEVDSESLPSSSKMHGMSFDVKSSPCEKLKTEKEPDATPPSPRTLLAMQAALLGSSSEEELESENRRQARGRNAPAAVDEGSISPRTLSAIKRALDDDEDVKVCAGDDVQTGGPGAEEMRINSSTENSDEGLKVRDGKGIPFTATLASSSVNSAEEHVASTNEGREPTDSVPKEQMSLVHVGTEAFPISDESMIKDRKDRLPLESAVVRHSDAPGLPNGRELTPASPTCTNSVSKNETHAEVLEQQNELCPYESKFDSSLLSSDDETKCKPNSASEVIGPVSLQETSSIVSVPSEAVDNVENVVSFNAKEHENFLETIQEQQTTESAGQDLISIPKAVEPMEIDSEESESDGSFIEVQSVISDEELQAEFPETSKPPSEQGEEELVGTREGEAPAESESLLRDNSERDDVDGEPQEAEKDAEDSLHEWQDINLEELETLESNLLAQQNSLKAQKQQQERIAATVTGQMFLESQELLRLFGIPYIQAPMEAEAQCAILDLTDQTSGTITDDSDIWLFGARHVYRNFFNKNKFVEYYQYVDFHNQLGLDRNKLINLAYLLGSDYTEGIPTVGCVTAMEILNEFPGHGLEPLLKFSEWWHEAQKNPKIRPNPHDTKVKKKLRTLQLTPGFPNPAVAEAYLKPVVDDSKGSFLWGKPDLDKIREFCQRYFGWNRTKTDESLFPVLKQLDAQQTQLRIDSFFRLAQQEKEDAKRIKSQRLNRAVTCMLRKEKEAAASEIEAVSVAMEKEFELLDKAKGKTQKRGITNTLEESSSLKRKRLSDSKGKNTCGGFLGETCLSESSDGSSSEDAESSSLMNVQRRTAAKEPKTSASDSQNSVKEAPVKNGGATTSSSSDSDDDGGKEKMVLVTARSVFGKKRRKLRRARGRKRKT

What follows are targets tested with CC[C@@H](C)Nc1cc(C(=O)N[C@H]2C[C@H]3CC[C@@H](C2)N3c2ccc(C(=O)C3CC3)cn2)c(C)cc1C(N)=O [XL888] (assay: phosphopeptide melting temperature shift (XL888 minus DMSO); higher = stabilised by drug treatment). Conditions: 100 µM; treatment time 2 h; layout: intact cells; SK-Mel 28.
Description: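 Phospho-TPP in intact SK-Mel 28 cells treated with 100 uM XL888 or DMSO for 2 h, heated at 10 temperatures (37-67 C) for 3 min, soluble fraction TMT10plex-labelled and TiO2 phospho-enriched. Melting curves were fitted per phosphopeptide; the value is the melting point difference (drug minus vehicle) in each of two biological replicates.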

| Target | phosphopeptide melting temperature shift [°C] |
| --- | --- |
| SRRM2 phosphosite_1329 (phosphosite position: 1329) (UniProt Q9UQ35) | 0.458 ± 1.1 |
| UniProt P21333-2_phosphosite_2319 (phosphosite position: 2319) | 0.989 ± 0.98 |
| UniProt Q99460-2_phosphosite_315 (phosphosite position: 315) | -0.542 ± 1.9 |
| UniProt Q9NS87-4_phosphosite_568 (phosphosite position: 568) | -0.25 |
| UniProt P15923-2_phosphosite_379 (phosphosite position: 379) | 0.257 |
| UniProt Q6ZSZ5-2_phosphosite_966 (phosphosite position: 966) | 0.273 |
| TP53BP1 phosphosite_662 (phosphosite position: 662) (UniProt Q12888) | 0.284 |
| UniProt P29590-2_phosphosite_518 (phosphosite position: 518) | -0.455 |
| UniProt Q96BR1-2_phosphosite_126 (phosphosite position: 126) | 0.335 ± 0.36 |
| LIMA1 phosphosite_698 (phosphosite position: 698) (UniProt Q9UHB6) | 1.68 |
| UniProt Q01831-2_phosphosite_847 (phosphosite position: 847) | 2.86 |
| UniProt Q96N67-2_phosphosite_946 (phosphosite position: 946) | 1.39 |
| UniProt Q93008-1_phosphosite_2547 (phosphosite position: 2547) | 3.51 |
| GNL1 phosphosite_48 (phosphosite position: 48) (UniProt P36915) | 0.265 |
| UniProt Q14677-2_phosphosite_214 (phosphosite position: 214) | 6.77 |
| UniProt Q9NYV4-2_phosphosite_385 (phosphosite position: 385) | 1.12 ± 1.5 |
| UniProt Q96MU7-2_phosphosite_308 (phosphosite position: 308) | 1.73 |
| CTTNBP2NL phosphosite_481 (phosphosite position: 481) (UniProt Q9P2B4) | -3.31 |
| UniProt Q86V48-2_phosphosite_574 (phosphosite position: 574) | 2.33 |
| NAB2 phosphosite_159 (phosphosite position: 159) (UniProt Q15742) | 1.51 |
| UniProt Q6NZI2_phosphosite_366 (phosphosite position: 366) | 0.435 |
| UniProt Q2M2I8-2_phosphosite_21 (phosphosite position: 21) | 0.445 ± 1.2 |
| PACSIN2 phosphosite_375 (phosphosite position: 375) (UniProt Q9UNF0) | 0.999 |

| Target | phosphopeptide melting temperature shift [°C] |
| --- | --- |
| UniProt Q14161-5_phosphosite_397 (phosphosite position: 397) | 5.69 |
| CRKL phosphosite_42 (phosphosite position: 42) (UniProt P46109) | -1.04 ± 0.52 |
| UniProt P49841_phosphosite_216 (phosphosite position: 216) | -0.489 ± 0.61 |
| UniProt Q641Q2-2_phosphosite_1158 (phosphosite position: 1158) | -0.193 ± 0.56 |
| SRRM2 phosphosite_297 (phosphosite position: 297) (UniProt Q9UQ35) | 9.67 ± 3.7 |
| SP100 phosphosite_18 (phosphosite position: 18) (UniProt P23497) | 1.82 |
| UniProt Q9BVS4-2_phosphosite_337 (phosphosite position: 337) | 0.0549 ± 0.26 |
| UniProt Q5THJ4-2_phosphosite_1038 (phosphosite position: 1038) | 1.92 ± 2.2 |
| UniProt Q16181-2_phosphosite_227 (phosphosite position: 227) | 0.831 ± 0.51 |
| UniProt Q9ULJ3_phosphosite_435 (phosphosite position: 435) | 1.32 ± 1.1 |
| MAP4 phosphosite_1073 (phosphosite position: 1073) (UniProt P27816) | 3.27 |
| UniProt P56524-2_phosphosite_521 (phosphosite position: 521) | -0.0707 |
| INPP5F phosphosite_935 (phosphosite position: 935) (UniProt Q9Y2H2) | 1.4 |
| UniProt Q9BV36_phosphosite_313 (phosphosite position: 313) | 0.966 |
| SMARCC2 phosphosite_302 (phosphosite position: 302) (UniProt Q8TAQ2) | 1.07 |
| UniProt Q15149_phosphosite_4613 (phosphosite position: 4613) | -2.21 |
| MAP1B phosphosite_1389 (phosphosite position: 1389) (UniProt P46821) | 0.113 |
| MAGEA4 phosphosite_99 (phosphosite position: 99) (UniProt P43358) | 1.67 |
| RRBP1 phosphosite_615 (phosphosite position: 615) (UniProt Q9P2E9) | -0.0273 ± 0.83 |
| UniProt Q96JM3_phosphosite_476 (phosphosite position: 476) | 1.98 ± 0.71 |
| UniProt Q96MU7-2_phosphosite_406 (phosphosite position: 406) | -1.69 |
| UniProt Q13017-2_phosphosite_1195 (phosphosite position: 1195) | 0.00693 ± 0.66 |
| UniProt Q9UPN7_phosphosite_531 (phosphosite position: 531) | 0.378 |

Part of the list above in a different format.
Target,phosphopeptide melting temperature shift [°C]
LIMA1 phosphosite_698 (phosphosite position: 698) (UniProt Q9UHB6),1.68
GNL1 phosphosite_48 (phosphosite position: 48) (UniProt P36915),0.265
UniProt P49841_phosphosite_216 (phosphosite position: 216),-0.489 ± 0.61

Remaining list, next part:

| Target | phosphopeptide melting temperature shift [°C] |
| --- | --- |
| UniProt O43294-2_phosphosite_16 (phosphosite position: 16) | 0.794 |
| GTPBP1 phosphosite_44 (phosphosite position: 44) (UniProt O00178) | -0.457 |
| CALU phosphosite_44 (phosphosite position: 44) (UniProt O43852) | 1.07 |
| KATNA1 phosphosite_170 (phosphosite position: 170) (UniProt O75449) | 0.919 |
| IRS2 phosphosite_577 (phosphosite position: 577) (UniProt Q9Y4H2) | 4.16 |
| PACSIN2 phosphosite_311 (phosphosite position: 311) (UniProt Q9UNF0) | 1.81 |
| UniProt Q9UPN3-4_phosphosite_1860 (phosphosite position: 1860) | 1.61 |
| UniProt Q13439-5_phosphosite_41 (phosphosite position: 41) | 3.39 |
| ALS2 phosphosite_492 (phosphosite position: 492) (UniProt Q96Q42) | 0.559 ± 0.29 |
| UniProt O60664_phosphosite_130 (phosphosite position: 130) | 2.1 ± 0.67 |
| UniProt Q92769-3_phosphosite_394 (phosphosite position: 394) | 1.73 |
| UniProt Q13033-2_phosphosite_257 (phosphosite position: 257) | 0.729 ± 0.21 |
| ERCC5 phosphosite_157 (phosphosite position: 157) (UniProt P28715) | 1.69 |
| ZNF652 phosphosite_103 (phosphosite position: 103) (UniProt Q9Y2D9) | 4.19 ± 1 |
| SRRM2 phosphosite_351 (phosphosite position: 351) (UniProt Q9UQ35) | 4 ± 0.95 |
| UniProt Q96G74-2_phosphosite_40 (phosphosite position: 40) | -0.204 |
| RAPH1 phosphosite_1154 (phosphosite position: 1154) (UniProt Q70E73) | -1.04 |
| UniProt Q9BVJ6-3_phosphosite_355 (phosphosite position: 355) | -4.32 |
| SRRM1 phosphosite_769 (phosphosite position: 769) (UniProt Q8IYB3) | 3.16 ± 1.6 |
| UniProt Q9P2R6-2_phosphosite_712 (phosphosite position: 712) | 3.08 |
| MPRIP phosphosite_224 (phosphosite position: 224) (UniProt Q6WCQ1) | 1.45 |
